PubChem BioAssay AID1259425 | University of Nebraska Medical Center, 2018
Test: 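Find knockdowns that reproduce the gene expression pattern seen when KSR1 is lost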 (primary screen). Cells: HCT116 human colon cancer cells. Reagents: siRNA pool against human genes, 50 nM siRNA. Measurement: 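mRNA of six signature genes measured together by branched-DNA assay after 50 nM siRNA pool, blank removed, divided by geometric mean of two housekeeping genes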. Reading the numbers: BNIP3L mRNA: higher = more BNIP3L transcript after knockdown; NDRG1 mRNA: higher = more NDRG1 transcript after knockdown; BNIP3 mRNA: higher = more BNIP3 transcript after knockdown; ALDOC mRNA: higher = more ALDOC transcript after knockdown.
The deposit covers about 14,000 reagents; this is a part drawn at random. The numbers tell different reagents against one gene apart. Further read-outs or replicates are left out here. The record does not give: the time to read-out.

| Gene | pool no. | BNIP3L mRNA, set 1 | NDRG1 mRNA, set 1 | BNIP3 mRNA, set 1 | ALDOC mRNA, set 1 |
| --- | --- | --- | --- | --- | --- |
| GPR78 | 1 | 0.264 | 0.727 | 0.476 | 0.0199 |
| ING5 | 1 | 0.2 | 0.196 | 0.315 | 0.117 |
| OLIG3 | 1 | 0.12 | 0.176 | 0.181 | 0.0409 |
| RAP2C | 1 | 0.0896 | 0.0834 | 0.323 | 0.0298 |
| IPO13 | 1 | 0.128 | 0.213 | 0.338 | 0.0457 |
| PTPRB | 1 | 0.112 | 0.0825 | 0.23 | 0.0145 |
| IBSP | 1 | 0.174 | 0.277 | 0.569 | 0.00113 |
| BBS2 | 1 | 0.0462 | 0.297 | 0.185 | 0.00826 |
| ESRP2 | 1 | 0.15 | 0.439 | 0.532 | 0.0554 |
| SCO1 | 1 | 0.15 | 0.128 | 0.248 | 0.0394 |
| SLC6A4 | 1 | 0.0884 | 0.0929 | 0.166 | 0.0483 |
| BCL7C | 1 | 0.174 | 0.209 | 0.347 | 0.0643 |
| GORASP2 | 1 | 0.0431 | 0.127 | 0.215 | 0.0218 |
| DDX55 | 1 | 0.204 | 0.173 | 0.578 | 0.0386 |
| CDK5R1 | 1 | 0.0632 | 0.342 | 0.175 | 0.0233 |
| RTTN | 1 | 0.118 | 0.118 | 0.519 | 0.0441 |
| FKBP1A | 1 | 0.0556 | 0.174 | 0.234 | 0.0256 |
| JTB | 1 | 0.0512 | 0.151 | 0.345 | 0.0449 |
| IL6R | 1 | 0.141 | 0.128 | 0.289 | 0.0456 |
| SURF1 | 1 | 0.057 | 0.134 | 0.368 | 0.0213 |
| AURKB | 1 | 0.243 | 0.175 | 0.458 | 0.012 |
| PTTG1IP | 1 | 0.0904 | 0.0747 | 0.374 | 0.0347 |
| LRRC3 | 1 | 0.201 | 0.357 | 0.257 | 0.0648 |
| LRRC3 | 2 | 0.22 | 1.39 | 2.9 | 0.315 |
| ATAD3B | 1 | 0.181 | 0.376 | 0.297 | 0.036 |
| GEMIN6 | 1 | 0.0952 | 0.165 | 0.282 | 0.0126 |
| FNDC8 | 1 | 0.14 | 0.373 | 0.412 | 0.0309 |
| TATDN1 | 1 | 0.436 | 0.346 | 0.353 | 0.159 |
| AKR1D1 | 1 | 0.386 | 0.23 | 0.404 | 0.195 |
| TPST2 | 1 | 0.0707 | 0.364 | 0.308 | 0.02 |
| LDB3 | 1 | 0.0921 | 0.216 | 0.265 | 0.0262 |
| PEX19 | 1 | 0.153 | 0.143 | 0.249 | 0.0343 |
| DYNLT1 | 1 | 0.071 | 0.0756 | 0.327 | 0.0467 |
| ZNF107 | 1 | 0.118 | 0.229 | 0.361 | 0.0245 |
| PJA1 | 1 | 0.123 | 0.257 | 0.403 | 0.0341 |
| MRPS34 | 1 | 0.169 | 0.367 | 0.217 | 0.0205 |
| SLC26A10P | 1 | 0.165 | 0.193 | 0.258 | 0.0343 |
| FAM215A | 1 | 0.256 | 0.553 | 0.798 | 0.067 |
| C4A | 1 | 0.116 | 0.439 | 0.296 | 0.0193 |
| VEPH1 | 1 | 0.118 | 0.158 | 0.539 | 0.0738 |
| ACTR3B | 1 | 0.0845 | 0.107 | 0.303 | 0.0228 |
| MTF1 | 1 | 0.0931 | 0.0775 | 0.259 | 0.0229 |
| PCDH7 | 1 | 0.0739 | 0.156 | 0.239 | 0.0132 |
| CRKL | 1 | 0.0454 | 0.432 | 0.343 | 0.012 |
| TRAPPC12 | 1 | 0.254 | 0.525 | 0.205 | 0.00632 |
| AQP2 | 1 | 0.0738 | 0.0934 | 0.288 | 0.0239 |
| ARPP19 | 1 | 0.0808 | 0.138 | 0.225 | 0.0151 |
| SLC28A2 | 1 | 0.0343 | 0.17 | 0.185 | 0.0509 |
| ALK | 1 | 0.0853 | 0.079 | 0.249 | 0.00817 |
| DCLK3 | 1 | 0.0504 | 0.147 | 0.268 | 0.00891 |
| MTRF1 | 1 | 0.123 | 0.134 | 0.291 | 0.0202 |
| DNAL1 | 1 | 0.0815 | 0.0945 | 0.401 | 0.0445 |
| TNFSF8 | 1 | 0.058 | 0.313 | 0.232 | 0.0252 |
| ASF1A | 1 | 0.0903 | 0.142 | 0.352 | 0.0422 |
| FANCF | 1 | 0.201 | 0.756 | 0.582 | 0.0494 |
| CXXC4 | 1 | 0.216 | 0.262 | 0.428 | 0.0594 |
| RMND1 | 1 | 0.0745 | 0.422 | 0.323 | 0.0306 |
| EMILIN1 | 1 | 0.262 | 0.178 | 0.313 | 0.0386 |
| CDH2 | 1 | 0.0525 | 0.106 | 0.277 | 0.00577 |
| INSM2 | 1 | 0.0606 | 0.244 | 0.275 | 0.0131 |
| CLCNKB | 1 | 0.0846 | 0.12 | 0.308 | 0.0173 |
| BSG | 1 | 0.0923 | 0.195 | 0.322 | 0.0347 |
| PGLYRP1 | 1 | 0.101 | 0.177 | 0.265 | 0.0461 |

Records listed so far whose gene name starts with R or r (3):
| Gene | pool no. | BNIP3L mRNA, set 1 | NDRG1 mRNA, set 1 | BNIP3 mRNA, set 1 | ALDOC mRNA, set 1 |
| --- | --- | --- | --- | --- | --- |
| RAP2C | 1 | 0.0896 | 0.0834 | 0.323 | 0.0298 |
| RTTN | 1 | 0.118 | 0.118 | 0.519 | 0.0441 |
| RMND1 | 1 | 0.0745 | 0.422 | 0.323 | 0.0306 |
